This is one part of the list. Most values lie at the level of the controls, where differences are scatter.
Compound: CN[C@@H]1C[C@H]2O[C@@](C)([C@@H]1OC)n1c3ccccc3c3c4c(c5c6ccccc6n2c5c31)C(=O)NC4 [staurosporine]
Assay: log2 fold change of tryptic peptide abundance, ligand vs vehicle (limited proteolysis) (log2 ratio); higher = more trypsin-susceptible (destabilized)
Conditions: ligand concentration: 20 uM; sample: K562 cleared lysate; digestion: 4 min, 22 C (HT-PELSA RT4min, Orbitrap Astral)

Protein sequences, listed by entry. Tags and fused reporters are not part of them. Lines headed by an entry give the natural chain unless they say otherwise; changes in a name come on top.
UniProt Q99439: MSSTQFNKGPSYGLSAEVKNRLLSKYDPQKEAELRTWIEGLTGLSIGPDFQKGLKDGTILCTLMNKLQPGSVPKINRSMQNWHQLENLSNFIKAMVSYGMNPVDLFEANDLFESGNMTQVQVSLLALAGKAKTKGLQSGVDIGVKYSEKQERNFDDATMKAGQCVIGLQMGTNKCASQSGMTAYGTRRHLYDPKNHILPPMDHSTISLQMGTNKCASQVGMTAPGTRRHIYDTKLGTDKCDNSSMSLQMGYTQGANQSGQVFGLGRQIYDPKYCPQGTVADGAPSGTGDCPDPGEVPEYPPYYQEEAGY
UniProt Q96SN8: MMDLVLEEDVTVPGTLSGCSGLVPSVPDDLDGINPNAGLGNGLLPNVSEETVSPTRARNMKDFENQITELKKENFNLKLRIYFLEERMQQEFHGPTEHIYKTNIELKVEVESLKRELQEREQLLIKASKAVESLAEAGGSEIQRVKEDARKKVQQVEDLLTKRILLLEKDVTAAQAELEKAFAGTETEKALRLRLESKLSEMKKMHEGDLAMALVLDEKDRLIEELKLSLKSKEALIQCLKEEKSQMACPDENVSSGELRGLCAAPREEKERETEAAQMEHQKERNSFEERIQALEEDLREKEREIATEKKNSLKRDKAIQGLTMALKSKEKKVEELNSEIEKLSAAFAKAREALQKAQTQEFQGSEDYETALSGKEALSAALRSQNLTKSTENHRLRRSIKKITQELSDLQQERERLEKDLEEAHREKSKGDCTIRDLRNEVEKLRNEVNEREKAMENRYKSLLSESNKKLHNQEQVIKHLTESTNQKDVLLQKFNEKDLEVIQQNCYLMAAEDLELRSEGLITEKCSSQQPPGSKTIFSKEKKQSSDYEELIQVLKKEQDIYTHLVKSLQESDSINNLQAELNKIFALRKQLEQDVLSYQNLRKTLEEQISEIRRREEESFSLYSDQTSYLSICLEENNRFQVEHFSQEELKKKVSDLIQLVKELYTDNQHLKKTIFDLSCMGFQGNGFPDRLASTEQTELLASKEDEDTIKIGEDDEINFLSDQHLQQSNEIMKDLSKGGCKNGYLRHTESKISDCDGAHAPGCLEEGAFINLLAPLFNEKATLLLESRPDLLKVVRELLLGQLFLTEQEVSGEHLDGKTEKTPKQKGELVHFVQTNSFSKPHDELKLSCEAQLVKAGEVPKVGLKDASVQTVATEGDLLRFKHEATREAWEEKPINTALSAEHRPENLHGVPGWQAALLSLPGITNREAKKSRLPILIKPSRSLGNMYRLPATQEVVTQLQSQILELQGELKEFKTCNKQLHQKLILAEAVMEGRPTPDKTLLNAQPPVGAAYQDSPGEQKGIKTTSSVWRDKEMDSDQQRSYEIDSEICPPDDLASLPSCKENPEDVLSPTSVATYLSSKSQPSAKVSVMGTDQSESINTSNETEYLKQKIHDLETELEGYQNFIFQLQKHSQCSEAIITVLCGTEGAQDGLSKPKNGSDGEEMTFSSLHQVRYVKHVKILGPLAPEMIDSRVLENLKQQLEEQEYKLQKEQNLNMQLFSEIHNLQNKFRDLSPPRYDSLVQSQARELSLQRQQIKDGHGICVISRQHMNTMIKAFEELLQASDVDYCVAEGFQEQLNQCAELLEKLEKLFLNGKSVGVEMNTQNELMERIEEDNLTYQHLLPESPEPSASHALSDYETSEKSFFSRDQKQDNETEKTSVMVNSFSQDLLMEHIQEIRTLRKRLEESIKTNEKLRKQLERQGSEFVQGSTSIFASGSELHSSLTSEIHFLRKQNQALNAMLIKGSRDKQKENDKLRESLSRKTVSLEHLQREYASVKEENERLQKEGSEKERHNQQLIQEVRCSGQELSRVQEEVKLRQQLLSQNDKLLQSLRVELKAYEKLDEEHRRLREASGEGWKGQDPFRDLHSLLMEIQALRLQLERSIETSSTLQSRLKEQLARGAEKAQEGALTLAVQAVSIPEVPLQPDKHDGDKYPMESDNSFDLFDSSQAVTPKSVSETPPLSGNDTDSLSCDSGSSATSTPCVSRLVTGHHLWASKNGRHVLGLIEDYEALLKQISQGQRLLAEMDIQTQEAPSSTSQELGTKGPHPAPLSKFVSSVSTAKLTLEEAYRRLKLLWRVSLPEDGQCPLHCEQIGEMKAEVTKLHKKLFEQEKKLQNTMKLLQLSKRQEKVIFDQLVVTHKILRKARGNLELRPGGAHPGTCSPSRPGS
UniProt Q96PQ6: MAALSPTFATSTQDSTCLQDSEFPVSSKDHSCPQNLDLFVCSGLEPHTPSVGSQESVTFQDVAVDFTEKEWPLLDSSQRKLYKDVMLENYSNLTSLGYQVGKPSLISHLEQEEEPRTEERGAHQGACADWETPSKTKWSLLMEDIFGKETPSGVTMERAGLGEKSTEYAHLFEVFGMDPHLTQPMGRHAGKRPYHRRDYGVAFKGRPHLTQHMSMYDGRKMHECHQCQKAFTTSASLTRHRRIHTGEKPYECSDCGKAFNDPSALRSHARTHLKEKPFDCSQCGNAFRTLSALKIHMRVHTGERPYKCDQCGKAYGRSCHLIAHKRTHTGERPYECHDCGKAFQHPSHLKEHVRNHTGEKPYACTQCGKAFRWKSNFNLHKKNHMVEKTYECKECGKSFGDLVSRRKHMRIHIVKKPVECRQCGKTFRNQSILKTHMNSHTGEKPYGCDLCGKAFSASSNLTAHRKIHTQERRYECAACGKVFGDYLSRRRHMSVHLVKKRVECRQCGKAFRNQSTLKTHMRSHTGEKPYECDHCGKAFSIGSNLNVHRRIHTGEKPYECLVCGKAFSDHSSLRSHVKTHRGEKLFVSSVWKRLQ
UniProt Q96GS4: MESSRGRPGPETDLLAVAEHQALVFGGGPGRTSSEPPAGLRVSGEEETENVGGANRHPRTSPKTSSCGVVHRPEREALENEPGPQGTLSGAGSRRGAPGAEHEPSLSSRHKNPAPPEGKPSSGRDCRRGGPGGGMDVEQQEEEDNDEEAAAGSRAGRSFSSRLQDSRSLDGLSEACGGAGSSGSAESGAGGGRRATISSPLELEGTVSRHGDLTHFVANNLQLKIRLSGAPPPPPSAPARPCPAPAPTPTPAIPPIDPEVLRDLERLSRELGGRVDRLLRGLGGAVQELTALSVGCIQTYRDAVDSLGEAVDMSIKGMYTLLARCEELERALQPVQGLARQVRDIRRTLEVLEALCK
UniProt Q96KP4: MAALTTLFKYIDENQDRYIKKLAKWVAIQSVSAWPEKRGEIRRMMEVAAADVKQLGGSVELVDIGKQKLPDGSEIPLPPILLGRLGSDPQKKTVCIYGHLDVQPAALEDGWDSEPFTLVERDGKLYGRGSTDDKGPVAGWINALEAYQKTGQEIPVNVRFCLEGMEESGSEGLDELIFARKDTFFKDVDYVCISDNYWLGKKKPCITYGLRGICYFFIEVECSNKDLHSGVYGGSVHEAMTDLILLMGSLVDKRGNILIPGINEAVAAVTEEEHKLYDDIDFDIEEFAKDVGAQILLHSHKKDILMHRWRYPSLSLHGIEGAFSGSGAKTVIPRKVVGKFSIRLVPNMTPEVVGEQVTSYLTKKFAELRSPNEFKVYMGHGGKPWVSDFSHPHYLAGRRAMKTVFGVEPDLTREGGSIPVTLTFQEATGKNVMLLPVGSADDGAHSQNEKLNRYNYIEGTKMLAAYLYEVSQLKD
UniProt Q96MX3: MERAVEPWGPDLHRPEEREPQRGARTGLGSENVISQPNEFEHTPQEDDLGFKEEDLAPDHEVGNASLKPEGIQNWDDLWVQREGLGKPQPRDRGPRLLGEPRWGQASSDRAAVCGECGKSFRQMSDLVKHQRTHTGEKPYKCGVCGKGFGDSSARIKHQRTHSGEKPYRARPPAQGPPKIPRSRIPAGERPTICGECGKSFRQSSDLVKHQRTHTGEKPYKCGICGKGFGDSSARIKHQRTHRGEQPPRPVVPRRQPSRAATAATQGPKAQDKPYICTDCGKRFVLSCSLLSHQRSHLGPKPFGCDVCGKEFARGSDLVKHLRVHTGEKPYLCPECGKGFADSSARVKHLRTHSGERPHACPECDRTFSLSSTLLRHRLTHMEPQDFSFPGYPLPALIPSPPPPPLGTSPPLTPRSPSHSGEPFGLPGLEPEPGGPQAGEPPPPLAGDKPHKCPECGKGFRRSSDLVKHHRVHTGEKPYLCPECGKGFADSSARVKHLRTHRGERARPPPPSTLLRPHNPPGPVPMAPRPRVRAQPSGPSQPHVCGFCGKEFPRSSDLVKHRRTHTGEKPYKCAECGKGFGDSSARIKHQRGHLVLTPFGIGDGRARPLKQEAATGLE
UniProt Q96NY9: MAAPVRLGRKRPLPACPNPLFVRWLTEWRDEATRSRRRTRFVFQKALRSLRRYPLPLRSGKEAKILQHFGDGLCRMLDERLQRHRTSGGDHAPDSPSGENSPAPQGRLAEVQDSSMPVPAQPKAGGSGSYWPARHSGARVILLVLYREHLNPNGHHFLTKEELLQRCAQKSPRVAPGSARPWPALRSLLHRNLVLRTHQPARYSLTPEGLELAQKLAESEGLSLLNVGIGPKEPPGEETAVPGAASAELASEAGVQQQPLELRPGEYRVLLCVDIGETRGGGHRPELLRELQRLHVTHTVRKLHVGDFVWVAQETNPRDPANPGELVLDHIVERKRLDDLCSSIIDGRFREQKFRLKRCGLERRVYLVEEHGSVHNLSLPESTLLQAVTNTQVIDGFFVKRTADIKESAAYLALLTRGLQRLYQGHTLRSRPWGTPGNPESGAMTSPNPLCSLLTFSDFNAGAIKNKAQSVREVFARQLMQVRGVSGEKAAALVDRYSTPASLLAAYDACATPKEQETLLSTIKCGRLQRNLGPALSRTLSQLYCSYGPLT
UniProt Q96KA5: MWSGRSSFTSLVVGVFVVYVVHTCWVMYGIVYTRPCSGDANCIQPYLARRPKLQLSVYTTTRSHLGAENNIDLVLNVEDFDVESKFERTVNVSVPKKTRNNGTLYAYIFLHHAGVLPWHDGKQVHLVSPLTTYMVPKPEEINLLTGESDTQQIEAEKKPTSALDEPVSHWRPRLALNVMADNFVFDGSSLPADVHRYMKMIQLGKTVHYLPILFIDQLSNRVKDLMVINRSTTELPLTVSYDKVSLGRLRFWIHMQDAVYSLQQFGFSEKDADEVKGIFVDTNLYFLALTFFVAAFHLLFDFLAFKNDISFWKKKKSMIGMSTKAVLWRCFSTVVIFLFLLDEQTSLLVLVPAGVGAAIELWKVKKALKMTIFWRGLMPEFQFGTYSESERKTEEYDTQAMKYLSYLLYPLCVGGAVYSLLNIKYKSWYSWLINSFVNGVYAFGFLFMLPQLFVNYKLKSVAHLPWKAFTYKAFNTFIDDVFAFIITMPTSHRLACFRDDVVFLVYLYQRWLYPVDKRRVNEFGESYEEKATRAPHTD
UniProt Q96N64: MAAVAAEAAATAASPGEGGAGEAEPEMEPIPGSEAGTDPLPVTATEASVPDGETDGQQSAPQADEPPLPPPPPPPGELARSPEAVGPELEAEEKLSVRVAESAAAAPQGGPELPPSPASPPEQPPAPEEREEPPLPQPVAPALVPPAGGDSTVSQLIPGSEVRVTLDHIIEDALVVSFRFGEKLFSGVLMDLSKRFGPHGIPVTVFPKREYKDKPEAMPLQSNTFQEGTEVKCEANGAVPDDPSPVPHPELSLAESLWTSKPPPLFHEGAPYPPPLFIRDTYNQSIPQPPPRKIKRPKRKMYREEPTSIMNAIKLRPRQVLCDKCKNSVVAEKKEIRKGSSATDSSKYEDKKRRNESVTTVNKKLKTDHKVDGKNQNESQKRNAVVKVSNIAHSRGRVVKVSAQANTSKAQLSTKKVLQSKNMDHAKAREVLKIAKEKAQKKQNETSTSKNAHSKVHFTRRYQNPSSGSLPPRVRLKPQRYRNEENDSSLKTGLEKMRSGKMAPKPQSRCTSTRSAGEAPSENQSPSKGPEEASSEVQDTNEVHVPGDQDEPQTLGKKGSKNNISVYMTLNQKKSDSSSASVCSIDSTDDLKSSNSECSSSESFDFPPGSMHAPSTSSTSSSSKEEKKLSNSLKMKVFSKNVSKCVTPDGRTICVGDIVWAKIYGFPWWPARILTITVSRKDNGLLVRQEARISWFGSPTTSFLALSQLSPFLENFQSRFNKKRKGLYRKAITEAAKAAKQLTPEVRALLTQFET

Q: “CNN2 (peptide sequence: YDPQKEAELR, peptide start residue: 26) (UniProt Q99439)” was tested. Which log2 fold change did it give?
A: The log2 fold change was 0.279.

Q: With “CDK5RAP2 (peptide sequence: SIETSSTLQSR, peptide start residue: 1608) (UniProt Q96SN8)” as the target, how does the log2 fold change read?
A: The log2 fold change was -0.313.

Q: With “ZNF317 (peptide sequence: AFTTSASLTR, peptide start residue: 230) (UniProt Q96PQ6)” as the target, how does the log2 fold change read?
A: Its log2 fold change is -0.352.

Q: With “UniProt Q96GS4 (peptide sequence: RTLEVLEALCK, peptide start residue: 347)” as the target, how does the log2 fold change read?
A: The log2 fold change was -0.638.

Q: “CNDP2 (peptide sequence: TGQEIPVNVR, peptide start residue: 150) (UniProt Q96KP4)” was tested. Which log2 fold change did it give?
A: Its log2 fold change is 0.553.

Q: “ZNF48 (peptide sequence: VHTGEKPYLCPECGK, peptide start residue: 324) (UniProt Q96MX3)” was tested. Which log2 fold change did it give?
A: Its log2 fold change is 0.429.

Q: Which log2 fold change does the source give for “MUS81 (peptide sequence: RPLPACPNPLFVR, peptide start residue: 11) (UniProt Q96NY9)” here?
A: Its log2 fold change is 0.566.

Q: With “ANKRD27 (peptide sequence: NADQAVPLHLACQQGHFQVVK, peptide start residue: 774) (UniProt Q96NW4)” as the target, how does the log2 fold change read?
A: The log2 fold change was -0.267.

Q: How did the log2 fold change turn out when “CLPTM1L (peptide sequence: VNEFGESYEEK, peptide start residue: 520) (UniProt Q96KA5)” was run?
A: The log2 fold change was 0.55.

Q: “PWWP2A (peptide sequence: MYREEPTSIMNAIK, peptide start residue: 301) (UniProt Q96N64)” was tested. Which log2 fold change did it give?
A: The log2 fold change was 0.44.
